Earlier results, collected in patent US11541152B2, “Medical device with drug-eluting coating on modified device surface” (Lutonix, Inc., priority 2018, dated 2023).
At least one compound was matched to its structure with a doubt left.

Conditions: cited from earlier work

## CCCCC(CC)COC(=O)CC(C(=O)OCC(CC)CCCC)S(=O)(=O)[O-].[Na+] (stereo not shown) [docusate sodium]
  HLB: 10
